Data from patent US6995306.
No constants are given. Whether binding was seen depends on the method and setting. Some entries that bind do so weakly or less than the wild type.

Amino acid sequences for entries named in this document (tags omitted). A change or cut given only in a name is not applied to a line headed by its entry.
UniProt P04386: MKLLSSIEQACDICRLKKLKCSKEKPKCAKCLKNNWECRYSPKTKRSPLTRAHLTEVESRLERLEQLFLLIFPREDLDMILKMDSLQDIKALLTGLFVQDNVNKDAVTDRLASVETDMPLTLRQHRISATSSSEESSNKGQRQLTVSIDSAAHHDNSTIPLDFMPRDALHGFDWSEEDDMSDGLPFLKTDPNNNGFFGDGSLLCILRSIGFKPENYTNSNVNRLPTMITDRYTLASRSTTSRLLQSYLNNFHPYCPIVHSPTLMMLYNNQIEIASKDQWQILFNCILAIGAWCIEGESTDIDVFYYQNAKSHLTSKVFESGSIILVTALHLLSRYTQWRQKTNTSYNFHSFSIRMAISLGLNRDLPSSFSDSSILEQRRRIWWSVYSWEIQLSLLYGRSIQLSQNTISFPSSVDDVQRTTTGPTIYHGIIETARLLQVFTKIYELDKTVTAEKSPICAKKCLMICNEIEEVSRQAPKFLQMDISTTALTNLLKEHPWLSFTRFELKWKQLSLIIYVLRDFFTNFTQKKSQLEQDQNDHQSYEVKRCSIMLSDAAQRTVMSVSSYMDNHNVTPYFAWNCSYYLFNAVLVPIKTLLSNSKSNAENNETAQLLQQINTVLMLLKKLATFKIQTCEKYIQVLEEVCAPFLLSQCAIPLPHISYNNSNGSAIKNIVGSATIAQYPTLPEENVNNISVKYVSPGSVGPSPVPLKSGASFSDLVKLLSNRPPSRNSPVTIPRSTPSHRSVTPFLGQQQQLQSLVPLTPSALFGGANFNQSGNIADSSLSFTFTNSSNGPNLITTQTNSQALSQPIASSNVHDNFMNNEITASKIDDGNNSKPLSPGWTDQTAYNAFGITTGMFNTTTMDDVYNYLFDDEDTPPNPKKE
UniProt P93002: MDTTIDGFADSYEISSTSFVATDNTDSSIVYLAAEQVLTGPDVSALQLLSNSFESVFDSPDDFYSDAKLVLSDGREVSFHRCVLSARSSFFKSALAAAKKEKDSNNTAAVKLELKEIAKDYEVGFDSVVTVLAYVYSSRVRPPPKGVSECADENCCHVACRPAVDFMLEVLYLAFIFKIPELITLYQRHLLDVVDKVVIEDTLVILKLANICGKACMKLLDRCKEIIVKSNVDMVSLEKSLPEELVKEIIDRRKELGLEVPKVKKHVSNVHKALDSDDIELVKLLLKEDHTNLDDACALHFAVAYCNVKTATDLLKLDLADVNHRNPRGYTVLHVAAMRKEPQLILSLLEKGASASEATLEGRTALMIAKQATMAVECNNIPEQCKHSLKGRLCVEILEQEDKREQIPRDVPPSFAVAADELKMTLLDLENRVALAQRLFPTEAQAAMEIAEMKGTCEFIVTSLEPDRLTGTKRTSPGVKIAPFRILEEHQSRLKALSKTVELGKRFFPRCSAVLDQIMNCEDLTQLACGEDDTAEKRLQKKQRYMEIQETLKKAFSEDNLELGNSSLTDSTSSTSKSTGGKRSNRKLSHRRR

B1: MN1, rice bZIP protein, original cDNA library clone in pAD-GAL4 (protein, not shown: large carriers)
chain: KNHQLENGHSGAVMASNSSDRSDRSDKLMDQKTMRRLAQNREAARKSRLRKKAYVQQLESSKLKLAQLEQELQKARQQGIFISSSGDQTHAMSGNGALTFDLEYTRWLEEQNKQINELRTAVNAHASDSDLRLIVDGIMAHYDEVFKVKGVAAKADVFHILSGMWKTPAERCFLWLGGFRPSELLKLLANHLEPLTEQQLLGLNNLQESSQQAEDALSQGMEALQQSLADTLAGSLASSGSSGNVANYMGQMAMAMGKLGTLENFLCQADNLRQQTLHQMQRILTIRQASRALLAIHDYFSRLRALSSLWLARPRE
B2: PNI (proline-rich NPR1 interactor), rice cDNA library clone in pAD-GAL4 (protein, not shown: large carriers)
chain: MDATTTDATTAKRKRPAASDIADDAPTTVDEVSDAEVEEFYAILRRMRDATRRLGARPPPPRAPAWRPSFSWEDFADAPPKQAPPPPQQPADHERVAENATPPRRPAPGLDLNVEPPSDAPATPRSARAPA

Experiments:
[1] = target: T1, GAL4 DB::NPR1 fusion protein (full-length Arabidopsis NPR1 bait) (Arabidopsis) (UniProt P04386+P93002); test: yeast two-hybrid screen, GAL4 DB::NPR1 bait, HIS3 and lacZ reporters, retested against pMC86 alone
[2] = target: T1, GAL4 DB::NPR1 fusion protein (full-length Arabidopsis NPR1 bait) (Arabidopsis); test: yeast two-hybrid

Row | Binder | binding [1] | binding [2]
1 | B1 | binds | binds
2 | B2 | binds | binds
